From article PMC12876990, “Targeting secreted PLA2 interactions with EGFR and vimentin to arrest prostate tumour growth” (Cell Death & Disease, 2025)
These are yes or no findings as the source states them, for the method shown. For some of these results: In cells and extracts the contact can be indirect. Some results given as binding are weak or reduced against the parent protein; the word gives no strength. One block for each binder: values may come before it.

By UniProt entry, the sequences of proteins in these tests, tags left out.
UniProt P08670: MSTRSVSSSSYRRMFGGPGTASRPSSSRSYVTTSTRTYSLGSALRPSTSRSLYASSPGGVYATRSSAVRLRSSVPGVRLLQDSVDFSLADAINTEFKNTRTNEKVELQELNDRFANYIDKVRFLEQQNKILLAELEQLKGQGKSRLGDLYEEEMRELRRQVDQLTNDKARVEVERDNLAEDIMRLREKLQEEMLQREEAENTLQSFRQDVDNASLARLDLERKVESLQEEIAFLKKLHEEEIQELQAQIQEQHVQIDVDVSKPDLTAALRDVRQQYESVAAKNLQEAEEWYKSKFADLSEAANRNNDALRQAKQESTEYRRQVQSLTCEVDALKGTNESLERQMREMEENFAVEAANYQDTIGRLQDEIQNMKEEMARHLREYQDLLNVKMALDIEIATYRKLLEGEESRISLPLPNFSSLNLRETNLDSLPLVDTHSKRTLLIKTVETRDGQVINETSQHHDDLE

Tests used:
[1] = molecular target: full-length vimentin (purified) (UniProt P08670); experiment: ELISA; in vitro enzyme immunoassay: vimentin fragments (coil 1, coil 2, full length) coated on a 96-well microplate at 15 µg/mL; hGIIA in PBS with 0.1% BSA, 37 °C, 2 h; detected with anti-hGIIA 4A1-alkaline phosphatase; both purified
[2] = molecular target: epidermal growth factor receptor (EGFR) (human (endogenous in PC-3)) (UniProt P00533); experiment: co-IP; PC-3 cells incubated with hGIIA (2 µg/mL, 2 h), washed, lysed; lysate immunoprecipitated with anti-EGFR beads overnight; hGIIA detected by western blot; only the binder purified
[3] = molecular target: endogenous vimentin in LNCaP cells (human (endogenous in LNCaP)) (UniProt P08670); experiment: FRET or BRET; FLIM-FRET on fixed, permeabilised LNCaP cells immunostained with anti-vimentin RV202/AF488 (donor) and anti-hGIIA 4A1/AF568 (acceptor); 2-photon excitation 960 nm
[4] = molecular target: endogenous vimentin in LNCaP cells (human (endogenous in LNCaP)) (UniProt P08670); experiment: co-IP; LNCaP cell lysate incubated with anti-vimentin antibody beads overnight; vimentin and hGIIA detected by western blot; beads alone as negative control

binding [1]: binds | binding [2]: binds
B1: secreted phospholipase A2 human group IIA (hGIIA) (enzyme, UniProt P14555 21-144)
chain: NLVNFHRMIKLTTGKEAALSYGFYGCHCGVGGRGSPKDATDRCCVTHDCCYKRLEKRGCGTKFLSYKFSNSGSRITCAKQDSCRSQLCECDKAAATCFARNKTTYNKKYQYYSNKHCRGSTPRC

binding [3]: binds | binding [4]: binds
B2: endogenous hGIIA in LNCaP cells (enzyme, UniProt P14555 21-144)
chain: B1 chain
